From paper PMC5177617 come the findings set out here.

By UniProt entry, the sequences of proteins in these tests, tags left out. Residues count along the entry.
UniProt Q9NNX6, residues 59-404: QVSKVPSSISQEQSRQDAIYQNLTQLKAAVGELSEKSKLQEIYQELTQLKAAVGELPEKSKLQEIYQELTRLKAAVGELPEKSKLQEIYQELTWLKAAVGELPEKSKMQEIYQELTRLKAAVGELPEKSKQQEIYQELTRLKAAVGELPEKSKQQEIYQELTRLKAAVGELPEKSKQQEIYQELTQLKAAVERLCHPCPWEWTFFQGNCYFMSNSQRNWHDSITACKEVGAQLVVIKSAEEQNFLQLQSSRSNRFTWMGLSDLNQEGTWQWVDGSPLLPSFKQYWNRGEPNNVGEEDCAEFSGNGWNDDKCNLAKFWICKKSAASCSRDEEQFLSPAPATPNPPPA
UniProt Q07021, residues 74-282: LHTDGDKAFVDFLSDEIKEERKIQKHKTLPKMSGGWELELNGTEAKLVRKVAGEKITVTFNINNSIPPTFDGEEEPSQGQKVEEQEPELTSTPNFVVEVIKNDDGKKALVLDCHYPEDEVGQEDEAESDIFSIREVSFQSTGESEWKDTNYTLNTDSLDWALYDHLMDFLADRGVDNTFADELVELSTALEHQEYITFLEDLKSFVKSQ

These are yes or no findings as the source states them, for the method shown. Some results given as binding are weak or reduced against the parent protein; the word gives no strength.

In this experiment the target is soluble DC-SIGN tetramer (entire extracellular domain including the α-helical neck region) (UniProt Q9NNX6). Kind of experiment: ELISA; competitive: DC-SIGN coated at 5 µg/well; gC1qR constant (5 µg/well) with ghB at 5, 2.5, 1.25, 0.625 µg/well in 5 mM CaCl2 buffer; 37°C […] then 4°C […]; bound gC1qR detected with anti-gC1qR polyclonal antibody; both purified.

Regarding “recombinant mature human gC1qR (residues 74-282) (from UniProt Q07021 74-282) (receptor)”, the binding entry was “binds”.
